Data as given in the supplement of paper PMC10849652.
This is one part of the list.

By UniProt entry, the sequences of proteins in these tests, tags left out. Where a name states a change or a piece, a line headed by the entry shows the natural chain unless it says otherwise.
UniProt Q9UKY7: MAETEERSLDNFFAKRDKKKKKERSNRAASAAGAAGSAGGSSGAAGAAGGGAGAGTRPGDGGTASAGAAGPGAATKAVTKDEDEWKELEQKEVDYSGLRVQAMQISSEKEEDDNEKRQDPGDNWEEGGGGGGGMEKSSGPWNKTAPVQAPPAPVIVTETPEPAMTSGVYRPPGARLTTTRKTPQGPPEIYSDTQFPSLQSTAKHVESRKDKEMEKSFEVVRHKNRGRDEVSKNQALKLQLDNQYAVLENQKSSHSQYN
UniProt Q9HD42: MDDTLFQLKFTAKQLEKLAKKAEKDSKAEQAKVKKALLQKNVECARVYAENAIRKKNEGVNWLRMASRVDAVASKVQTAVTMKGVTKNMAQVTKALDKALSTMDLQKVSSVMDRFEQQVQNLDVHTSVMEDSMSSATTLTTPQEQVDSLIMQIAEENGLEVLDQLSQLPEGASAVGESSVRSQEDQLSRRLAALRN
UniProt Q9BWU1: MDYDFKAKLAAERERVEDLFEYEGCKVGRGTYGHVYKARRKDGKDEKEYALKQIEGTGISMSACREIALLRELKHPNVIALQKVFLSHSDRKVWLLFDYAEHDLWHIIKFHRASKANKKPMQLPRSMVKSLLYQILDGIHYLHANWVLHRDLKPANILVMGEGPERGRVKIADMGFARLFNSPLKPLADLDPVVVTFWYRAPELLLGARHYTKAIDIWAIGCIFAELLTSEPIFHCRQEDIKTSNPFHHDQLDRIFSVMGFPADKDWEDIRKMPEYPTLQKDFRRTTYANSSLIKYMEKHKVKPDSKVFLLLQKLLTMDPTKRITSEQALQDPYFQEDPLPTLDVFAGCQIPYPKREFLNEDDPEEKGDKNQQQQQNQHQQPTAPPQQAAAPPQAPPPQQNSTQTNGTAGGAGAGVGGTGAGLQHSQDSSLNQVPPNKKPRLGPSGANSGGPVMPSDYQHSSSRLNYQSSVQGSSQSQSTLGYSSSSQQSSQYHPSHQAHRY
UniProt Q9UEE9, whole entry, looked up: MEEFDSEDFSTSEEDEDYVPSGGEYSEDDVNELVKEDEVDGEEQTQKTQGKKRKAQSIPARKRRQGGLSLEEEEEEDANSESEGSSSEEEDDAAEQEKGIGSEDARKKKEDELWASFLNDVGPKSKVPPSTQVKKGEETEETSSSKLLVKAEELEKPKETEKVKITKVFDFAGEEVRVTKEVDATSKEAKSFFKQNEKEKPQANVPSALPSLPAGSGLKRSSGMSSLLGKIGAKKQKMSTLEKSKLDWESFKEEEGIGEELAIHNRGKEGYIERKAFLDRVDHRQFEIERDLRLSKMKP
UniProt Q9Y281, whole entry, looked up: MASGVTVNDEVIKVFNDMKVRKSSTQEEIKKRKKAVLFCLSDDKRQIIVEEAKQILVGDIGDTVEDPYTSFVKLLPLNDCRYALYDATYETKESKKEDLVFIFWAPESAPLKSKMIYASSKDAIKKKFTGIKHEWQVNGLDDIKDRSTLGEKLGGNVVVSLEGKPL
UniProt Q9Y6H1: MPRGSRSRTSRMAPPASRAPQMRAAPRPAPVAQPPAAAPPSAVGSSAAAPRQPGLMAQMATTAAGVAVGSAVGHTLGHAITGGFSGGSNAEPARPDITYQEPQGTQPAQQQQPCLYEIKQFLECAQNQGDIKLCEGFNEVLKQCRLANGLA
UniProt P23528, whole entry, looked up: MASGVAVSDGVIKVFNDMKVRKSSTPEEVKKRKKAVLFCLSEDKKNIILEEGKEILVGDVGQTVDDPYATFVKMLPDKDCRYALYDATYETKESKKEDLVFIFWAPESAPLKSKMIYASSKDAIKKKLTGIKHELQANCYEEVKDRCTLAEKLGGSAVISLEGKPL
UniProt O14735: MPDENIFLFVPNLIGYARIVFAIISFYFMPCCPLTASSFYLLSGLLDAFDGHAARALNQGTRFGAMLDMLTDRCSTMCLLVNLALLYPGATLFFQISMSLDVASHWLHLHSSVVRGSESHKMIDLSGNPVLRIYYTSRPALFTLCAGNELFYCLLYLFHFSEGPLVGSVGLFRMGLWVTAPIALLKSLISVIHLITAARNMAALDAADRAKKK
UniProt Q7L2Z9: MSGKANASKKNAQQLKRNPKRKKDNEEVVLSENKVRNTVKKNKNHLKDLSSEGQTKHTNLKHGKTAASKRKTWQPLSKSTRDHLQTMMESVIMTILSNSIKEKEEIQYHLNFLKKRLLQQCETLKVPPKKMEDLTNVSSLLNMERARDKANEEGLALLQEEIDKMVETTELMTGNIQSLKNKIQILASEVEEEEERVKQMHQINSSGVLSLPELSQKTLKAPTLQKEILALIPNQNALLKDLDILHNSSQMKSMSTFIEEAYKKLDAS
UniProt Q53HL2: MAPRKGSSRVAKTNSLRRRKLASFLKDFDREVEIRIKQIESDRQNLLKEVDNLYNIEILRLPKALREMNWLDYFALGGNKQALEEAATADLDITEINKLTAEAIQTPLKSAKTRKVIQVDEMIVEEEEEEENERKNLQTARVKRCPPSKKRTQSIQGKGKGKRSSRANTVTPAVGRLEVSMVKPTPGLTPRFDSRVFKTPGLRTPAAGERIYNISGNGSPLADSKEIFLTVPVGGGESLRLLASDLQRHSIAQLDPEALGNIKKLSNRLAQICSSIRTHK
UniProt Q9UHN6: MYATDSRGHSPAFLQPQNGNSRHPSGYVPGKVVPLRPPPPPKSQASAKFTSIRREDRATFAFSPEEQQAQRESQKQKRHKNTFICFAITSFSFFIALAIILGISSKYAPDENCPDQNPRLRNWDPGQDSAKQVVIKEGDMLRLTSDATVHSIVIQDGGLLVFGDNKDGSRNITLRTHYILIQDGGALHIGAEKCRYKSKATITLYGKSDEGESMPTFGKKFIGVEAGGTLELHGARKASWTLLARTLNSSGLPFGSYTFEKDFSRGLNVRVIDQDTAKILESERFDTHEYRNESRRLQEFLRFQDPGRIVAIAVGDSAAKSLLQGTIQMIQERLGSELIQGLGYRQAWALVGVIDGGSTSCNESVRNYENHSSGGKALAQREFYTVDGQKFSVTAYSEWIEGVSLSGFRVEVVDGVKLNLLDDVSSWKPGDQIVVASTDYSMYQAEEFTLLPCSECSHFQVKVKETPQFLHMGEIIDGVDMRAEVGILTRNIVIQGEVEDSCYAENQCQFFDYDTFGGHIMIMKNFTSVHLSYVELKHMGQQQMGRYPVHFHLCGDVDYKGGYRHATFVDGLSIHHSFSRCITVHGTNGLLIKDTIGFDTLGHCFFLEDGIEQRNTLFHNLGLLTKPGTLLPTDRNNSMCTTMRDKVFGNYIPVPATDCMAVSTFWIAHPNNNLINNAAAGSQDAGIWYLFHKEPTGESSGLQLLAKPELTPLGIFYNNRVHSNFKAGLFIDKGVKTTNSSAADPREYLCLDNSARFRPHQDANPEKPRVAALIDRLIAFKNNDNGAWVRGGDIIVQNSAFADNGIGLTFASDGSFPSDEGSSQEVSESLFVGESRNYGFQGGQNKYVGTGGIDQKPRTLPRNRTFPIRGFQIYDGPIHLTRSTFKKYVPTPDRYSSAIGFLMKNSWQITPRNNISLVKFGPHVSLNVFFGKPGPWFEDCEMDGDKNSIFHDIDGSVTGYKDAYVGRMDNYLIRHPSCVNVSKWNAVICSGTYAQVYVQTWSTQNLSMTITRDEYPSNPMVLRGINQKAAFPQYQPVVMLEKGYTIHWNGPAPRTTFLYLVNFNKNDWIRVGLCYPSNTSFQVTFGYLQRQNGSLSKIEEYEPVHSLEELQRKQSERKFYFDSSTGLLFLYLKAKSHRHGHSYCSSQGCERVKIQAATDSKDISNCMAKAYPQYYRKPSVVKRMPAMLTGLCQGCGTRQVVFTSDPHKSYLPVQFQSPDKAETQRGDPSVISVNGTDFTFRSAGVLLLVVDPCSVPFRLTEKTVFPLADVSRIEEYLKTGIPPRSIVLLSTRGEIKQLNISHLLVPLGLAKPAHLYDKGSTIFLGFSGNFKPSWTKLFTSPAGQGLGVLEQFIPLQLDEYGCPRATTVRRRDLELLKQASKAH
UniProt Q49AH0, whole entry, looked up: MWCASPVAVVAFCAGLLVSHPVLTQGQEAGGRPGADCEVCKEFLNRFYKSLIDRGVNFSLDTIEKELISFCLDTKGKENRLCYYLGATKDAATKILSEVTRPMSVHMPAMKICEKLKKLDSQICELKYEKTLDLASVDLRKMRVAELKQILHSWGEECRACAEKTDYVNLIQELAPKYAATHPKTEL
UniProt Q6IPU0: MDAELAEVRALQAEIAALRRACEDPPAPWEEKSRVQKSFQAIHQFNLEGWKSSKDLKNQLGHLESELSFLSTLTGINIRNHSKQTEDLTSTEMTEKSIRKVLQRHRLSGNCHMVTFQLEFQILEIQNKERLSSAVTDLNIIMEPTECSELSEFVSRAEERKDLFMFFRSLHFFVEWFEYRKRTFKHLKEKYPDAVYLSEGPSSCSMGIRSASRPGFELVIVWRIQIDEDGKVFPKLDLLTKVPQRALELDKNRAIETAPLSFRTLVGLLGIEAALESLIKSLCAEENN
UniProt Q96SN8: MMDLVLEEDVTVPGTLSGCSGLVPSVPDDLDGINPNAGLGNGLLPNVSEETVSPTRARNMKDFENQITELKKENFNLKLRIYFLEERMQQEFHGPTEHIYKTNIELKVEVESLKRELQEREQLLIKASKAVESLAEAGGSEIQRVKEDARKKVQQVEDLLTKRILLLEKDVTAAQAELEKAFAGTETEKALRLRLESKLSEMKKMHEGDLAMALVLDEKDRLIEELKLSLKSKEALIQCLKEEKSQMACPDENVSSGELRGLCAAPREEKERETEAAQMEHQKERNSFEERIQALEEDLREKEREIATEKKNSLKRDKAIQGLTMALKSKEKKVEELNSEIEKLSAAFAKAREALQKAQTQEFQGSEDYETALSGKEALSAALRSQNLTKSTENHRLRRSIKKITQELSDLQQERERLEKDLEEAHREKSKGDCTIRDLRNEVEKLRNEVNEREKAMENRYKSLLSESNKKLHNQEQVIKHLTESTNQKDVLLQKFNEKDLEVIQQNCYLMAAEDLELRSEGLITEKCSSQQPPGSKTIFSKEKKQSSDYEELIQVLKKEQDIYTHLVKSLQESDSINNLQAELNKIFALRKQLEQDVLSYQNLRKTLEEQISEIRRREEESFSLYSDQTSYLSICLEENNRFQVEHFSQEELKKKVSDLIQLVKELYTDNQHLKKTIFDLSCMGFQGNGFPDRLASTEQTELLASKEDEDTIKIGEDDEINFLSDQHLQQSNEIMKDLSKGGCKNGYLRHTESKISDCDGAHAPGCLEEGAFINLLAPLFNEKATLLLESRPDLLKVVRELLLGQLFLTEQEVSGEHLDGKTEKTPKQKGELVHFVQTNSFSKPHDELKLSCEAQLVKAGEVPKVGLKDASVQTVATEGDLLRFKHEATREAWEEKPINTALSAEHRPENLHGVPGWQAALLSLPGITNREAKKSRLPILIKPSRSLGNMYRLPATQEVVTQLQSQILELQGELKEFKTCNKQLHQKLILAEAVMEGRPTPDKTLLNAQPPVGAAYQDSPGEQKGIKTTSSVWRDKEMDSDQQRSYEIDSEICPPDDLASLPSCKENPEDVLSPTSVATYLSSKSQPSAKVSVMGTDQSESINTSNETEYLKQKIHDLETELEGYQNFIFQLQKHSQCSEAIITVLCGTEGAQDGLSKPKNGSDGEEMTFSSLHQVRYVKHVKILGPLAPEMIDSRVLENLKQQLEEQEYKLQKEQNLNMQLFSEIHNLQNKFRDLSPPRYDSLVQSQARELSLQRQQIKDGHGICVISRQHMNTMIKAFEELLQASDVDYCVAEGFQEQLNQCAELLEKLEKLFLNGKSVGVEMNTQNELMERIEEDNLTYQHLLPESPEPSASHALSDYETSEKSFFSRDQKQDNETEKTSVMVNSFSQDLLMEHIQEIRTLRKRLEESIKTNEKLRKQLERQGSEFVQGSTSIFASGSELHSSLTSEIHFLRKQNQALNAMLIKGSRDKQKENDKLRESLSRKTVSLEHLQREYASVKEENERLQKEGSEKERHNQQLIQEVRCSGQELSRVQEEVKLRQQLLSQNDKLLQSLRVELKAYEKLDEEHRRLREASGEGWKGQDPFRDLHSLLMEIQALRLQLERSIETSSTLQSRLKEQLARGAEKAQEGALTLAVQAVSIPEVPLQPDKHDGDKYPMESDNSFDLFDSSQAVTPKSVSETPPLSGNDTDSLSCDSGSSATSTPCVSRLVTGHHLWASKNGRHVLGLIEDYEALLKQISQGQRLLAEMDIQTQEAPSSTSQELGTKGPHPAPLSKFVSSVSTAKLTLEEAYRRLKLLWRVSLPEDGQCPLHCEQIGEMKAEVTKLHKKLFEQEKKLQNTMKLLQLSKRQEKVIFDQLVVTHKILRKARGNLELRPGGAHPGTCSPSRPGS
UniProt Q8WYQ3: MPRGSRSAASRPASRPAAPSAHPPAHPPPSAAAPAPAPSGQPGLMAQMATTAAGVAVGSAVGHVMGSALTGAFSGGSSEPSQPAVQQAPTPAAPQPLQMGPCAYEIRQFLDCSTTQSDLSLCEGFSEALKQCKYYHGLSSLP
UniProt A8MTT3: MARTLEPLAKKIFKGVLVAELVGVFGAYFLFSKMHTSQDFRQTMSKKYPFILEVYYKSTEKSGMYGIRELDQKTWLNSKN

How the values were obtained:
Experiment in all cases: log2 fold change, soluble protein after heating vs DMSO (PISA); higher = thermal stabilisation; K562 cells, 10 uM, 30 min; active = over 0.2 and 3.5 SD of the protein, either way, in both replicates (recomputed)
[1] = compound: NC(=O)Nc1cc(-c2cccc(F)c2)sc1C(=O)N[C@H]1CCCNC1
Procedure, shortened: (§1)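 Quantification of soluble protein used TMTpro 16plex LC-MS/MS, with channel sums equalised. Samples were the supernatant after 21,000xg for 90 min of pooled aliquots from K562 cells (2×10^6 cells/mL) treated with 10 μM compound for 30 min, heated for 3 min over 48°C-58°C, and extracted in PBS with 0.5% NP-40 at 4°C. Values, from duplicates, describe thermal stability against control samples on a log2 fold-change scale.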

[2] = compound: NC(=O)c1cnc(N[C@@H]2CCCC[C@@H]2N)nc1Nc1cccc(-n2nccn2)c1
Procedure, shortened: as §1

[3] = compound: NC1(c2ccc(-c3nc4ccn5c(=O)[nH]nc5c4cc3-c3ccccc3)cc2)CCC1
Procedure, shortened: as §1

[4] = compound: NCC(=O)Nc1ccc(-n2nc(C(F)(F)F)cc2-c2ccc3c(ccc4ccccc43)c2)cc1
Procedure, shortened: as §1

[5] = compound: Nc1ccccc1NC(=O)c1ccc(CNC(=O)OCc2cccnc2)cc1 [entinostat]
Procedure, shortened: as §1

[6] = compound: O=C(CCCCCCC(=O)Nc1ccccc1)NO [vorinostat]
Procedure, shortened: as §1

[7] = compound: O=C(CCCCCCNC(=O)c1cnc(N(c2ccccc2)c2ccccc2Cl)nc1)NO [citarinostat]
Procedure, shortened: as §1

[8] = compound: O=C(O)c1ccc2c(c1)nc(Nc1cccc(Cl)c1)c1ccncc12 [silmitasertib]
Procedure, shortened: as §1

[9] = compound: O=C1NC(=O)C(c2cnc3ccccn23)=C1c1cn2c3c(cc(F)cc13)CN(C(=O)N1CCCCC1)CC2
Procedure, shortened: as §1

[10] = compound: c1cc(OCCN2CCCCC2)cc(-c2n[nH]c3ccc(-c4nnc[nH]4)cc23)c1
Procedure, shortened: as §1

Measured: log2 fold change

CDV3 (UniProt Q9UKY7)
inactive: [1] 0.092 | [2] -0.001 | [3] 0.048 | [4] 0.053 | [5] 0.03 | [6] -0.029 | [7] -0.028 | [8] -0.037 | [9] 0.065 | [10] 0.019

CHMP4C (UniProt Q96CF2)
inactive: [1] -0.003 | [2] -0.005 | [3] -0.089 | [4] -0.043 | [5] 0.041 | [6] 0.02 | [7] -0.138 | [8] 0.028 | [9] -0.22 | [10] 0.052

CHMP1A (UniProt Q9HD42)
inactive: [1] 0.014 | [2] -0.006 | [3] -0.169 | [4] -0.017 | [5] 0.002 | [6] 0.004 | [7] 0.05 | [8] -0.013 | [9] -0.003 | [10] -0.007

CHMP2B (UniProt Q9UQN3)
inactive: [1] 0.084 | [2] 0.011 | [3] -0.209 | [4] 0.013 | [5] 0.023 | [6] 0.018 | [7] 0.025 | [8] 0.005 | [9] -0.029 | [10] 0.021

CHMP2A (UniProt O43633)
inactive: [1] 0.113 | [2] 0.012 | [3] -0.099 | [4] 0.023 | [5] -0.005 | [6] 0.009 | [7] 0.08 | [8] -0.014 | [9] -0.028 | [10] 0.008

CDK19 (UniProt Q9BWU1)
inactive: [1] -0.131 | [2] -0.135 | [3] -0.093 | [4] -0.018 | [5] -0.085 | [6] 0.016 | [7] -0.265 | [8] 0.327 | [9] 0.16 | [10] -0.089

CDSN (UniProt Q15517)
inactive: [1] 0.068 | [2] 0.554 | [3] 0.099 | [4] 0.465 | [5] 0.348 | [6] -0.065 | [7] -0.41 | [8] -0.092 | [9] -0.064 | [10] 0.187

CFDP1 (UniProt Q9UEE9)
inactive: [1] 0.041 | [2] -0.004 | [3] 0.011 | [4] 0.009 | [5] -0.014 | [6] -0.083 | [7] 0.017 | [8] -0.015 | [9] -0.052 | [10] 0.015

CFL2 (UniProt Q9Y281)
inactive: [1] -0.05 | [2] 0.068 | [3] -0.074 | [4] -0.053 | [5] -0.014 | [6] 0.016 | [7] -0.107 | [8] 0.065 | [9] -0.03 | [10] -0.14

CHCHD2 (UniProt Q9Y6H1)
inactive: [1] -0.039 | [2] -0.011 | [3] 0.022 | [4] 0.012 | [5] -0.01 | [6] 0.005 | [7] 0.018 | [8] 0.009 | [9] -0.13 | [10] -0.008

CDKN2AIP (UniProt Q9NXV6)
inactive: [1] 0.003 | [2] 0.044 | [3] -0.018 | [4] -0.026 | [5] 0.017 | [6] 0.027 | [7] 0.013 | [8] 0.026 | [9] 0.022 | [10] -0.071

CDK17 isoform 2 (UniProt Q00537)
inactive: [1] -0.066 | [2] -0.258 | [3] -0.04 | [4] -0.074 | [5] 0.035 | [6] -0.114 | [7] -0.245 | [8] 0.088 | [9] 0.321 | [10] -0.083

CHEK2 isoform 9 (UniProt O96017)
inactive: [1] 0.067 | [2] 0.015 | [3] -0.072 | [4] 0.005 | [5] 0.041 | [6] -0.004 | [7] 0.045 | [8] 0.017 | [9] -0.077 | [10] -0.002

CEP192 (UniProt Q8TEP8)
inactive: [1] -0.334 | [2] -0.283 | [3] 0.023 | [4] 0.079 | [5] -0.157 | [6] -0.229 | [7] -0.205 | [8] -0.041 | [9] -0.312 | [10] -0.084

CFL1 (UniProt P23528)
inactive: [1] 0.091 | [2] 0.021 | [3] -0.044 | [4] 0.048 | [5] 0.069 | [6] -0.037 | [7] 0.017 | [8] -0.023 | [9] -0.06 | [10] 0.026

CDIPT (UniProt O14735)
inactive: [1] -0.106 | [2] 0.132 | [3] 0.024 | [4] 0.051 | [5] 0.111 | [6] 0.14 | [7] -0.033 | [8] 0.038 | [9] -0.016 | [10] -0.052

CETN3 (UniProt O15182)
inactive: [1] -0.016 | [2] -0.059 | [3] -0.031 | [4] -0.102 | [5] 0.033 | [6] -0.126 | [7] -0.002 | [8] 0.032 | [9] -0.1 | [10] -0.061

CHCHD1 (UniProt Q96BP2)
inactive: [1] 0.017 | [2] -0.142 | [3] -0.149 | [4] -0.023 | [5] 0.03 | [6] 0.023 | [7] 0.009 | [8] 0.031 | [9] -0.015 | [10] -0.169

CFAP58 (UniProt Q5T655)
inactive: [3] 0.028 | [6] 0.018 | [7] -0.357 | [8] -0.008 | [10] 0.392

CEP83 (UniProt Q9Y592)
inactive: [7] 0.021 | [10] 0.015

CHD8 (UniProt Q9HCK8)
inactive: [9] -0.089

CER1 (UniProt O95813)
inactive: [6] -0.876

CENPQ (UniProt Q7L2Z9)
inactive: [1] -0.059 | [3] -0.069 | [5] -0.109 | [8] -0.059 | [9] -0.076

CFAP47 (UniProt Q6ZTR5)
inactive: [2] 0.022 | [4] -0.024 | [7] -0.042 | [9] -0.025 | [10] -0.008

CDC7 (UniProt O00311)
inactive: [4] 1.36

CHD1 (UniProt O14646)
inactive: [2] -0.095 | [6] 0.008 | [9] 0.243

CDCA8 (UniProt Q53HL2)
inactive: [1] 0.023 | [5] -0.129

CEMIP2 (UniProt Q9UHN6)
inactive: [2] 0.072 | [3] -0.243 | [4] -0.072 | [6] 0.038 | [7] 0.124 | [8] 0.057 | [9] 0.034 | [10] -0.078

CDC42EP2 (UniProt O14613)
inactive: [1] -0.103 | [5] 0.15 | [9] 0.018

CDH5 (UniProt P33151)
inactive: [1] -0.052 | [3] 0.171 | [5] -0.056 | [7] -0.103 | [8] -0.062 | [9] 0.191 | [10] 0.213

CDNF (UniProt Q49AH0)
inactive: [4] 0.015

CENPP (UniProt Q6IPU0)
inactive: [3] -0.232 | [6] 0.368 | [8] -0.118 | [9] -0.01

CDK5RAP2 (UniProt Q96SN8)
inactive: [4] 0 | [9] -0.11

CHCHD10 (UniProt Q8WYQ3)
inactive: [3] -0.024 | [4] 0.167 | [7] -0.04 | [8] -0.038 | [9] -0.015 | [10] -0.073

CENPC (UniProt Q03188)
inactive: [2] -0.034 | [4] 0.048 | [7] -0.006 | [9] 0.224 | [10] -0.191

CDC42EP3 (UniProt Q9UKI2)
inactive: [3] -0.104 | [8] 0.025 | [9] -0.01

CEBPZOS (UniProt A8MTT3)
inactive: [2] 0.022 | [3] -0.124 | [4] 0.028 | [6] -0.03 | [7] -0.011 | [8] 0.018 | [10] -0.056

CDS1 (UniProt Q92903)
inactive: [3] 0.039 | [8] 0.061 | [9] 0.055
